{"sequences": {"note": "Chains of the proteins cited; added tags and fusions are not shown.", "UniProt O05442": "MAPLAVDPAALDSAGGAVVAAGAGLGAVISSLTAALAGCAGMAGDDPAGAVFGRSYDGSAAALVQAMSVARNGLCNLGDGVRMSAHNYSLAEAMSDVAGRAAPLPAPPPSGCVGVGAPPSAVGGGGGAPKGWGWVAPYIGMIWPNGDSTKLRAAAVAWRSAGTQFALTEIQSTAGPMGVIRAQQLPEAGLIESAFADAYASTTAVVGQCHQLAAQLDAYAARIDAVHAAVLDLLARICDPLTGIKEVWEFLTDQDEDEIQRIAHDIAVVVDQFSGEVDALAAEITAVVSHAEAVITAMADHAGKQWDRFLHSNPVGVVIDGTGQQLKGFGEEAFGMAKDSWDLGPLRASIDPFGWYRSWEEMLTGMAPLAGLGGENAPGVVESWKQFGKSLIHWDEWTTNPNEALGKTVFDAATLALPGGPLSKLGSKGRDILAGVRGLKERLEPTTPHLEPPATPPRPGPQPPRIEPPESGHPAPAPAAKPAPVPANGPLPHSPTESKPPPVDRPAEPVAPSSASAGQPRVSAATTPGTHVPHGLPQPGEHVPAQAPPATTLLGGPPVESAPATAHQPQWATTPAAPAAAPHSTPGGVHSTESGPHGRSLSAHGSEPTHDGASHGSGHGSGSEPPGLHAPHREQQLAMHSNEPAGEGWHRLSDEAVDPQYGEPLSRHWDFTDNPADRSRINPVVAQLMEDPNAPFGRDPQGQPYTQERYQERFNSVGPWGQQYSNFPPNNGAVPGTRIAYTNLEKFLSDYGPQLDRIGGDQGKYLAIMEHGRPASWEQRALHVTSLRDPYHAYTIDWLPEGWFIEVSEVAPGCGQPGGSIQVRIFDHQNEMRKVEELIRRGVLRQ"}, "source": "paper PMC7810871", "biological_target": "CpnT (channel protein with necrosis-inducing toxin) (Mycobacterium tuberculosis) (UniProt O05442)", "assay": "cross-linking", "note": "No constants are given. Whether binding was seen depends on the method and setting. Binding seen in cells or lysates may run through a third protein. Some binding calls cover weakened binding; strength is not graded here.", "data": [{"substance": "CpnT (channel protein with necrosis-inducing toxin) (from UniProt O05442 1-846)", "values": [{"measurement": "binding", "value": "binds"}]}]}
